# Measurements as given in patent publication US20210283089A1, “Use of fumaric acid esters and pharmaceutically acceptable salts thereof in preparing pharmaceuticals for treating ferroptosis-related diseases” (XIANGYA HOSPITAL CENTRAL SOUTH UNIVERSITY, priority 2018, published 2021).
# Where a name gives a salt, the structure may show the parent alone. At least one structure is not confirmed: it was looked up by name or label, or the drawing left a doubt.
# Legend:
# Type in all cases: cell-based, Human
# [1] = tested on: GPX4 protein level of HepG2 and LO2 cells; test: Western Blot test 1: GPX4 protein level, ethanol stimulation; conditions: 80 mM ethanol + 10 μM test substance, 6 h
# HepG2 and LO2 cells = test: Determination test of cell membrane lipid peroxidation level (MDA detection kit); conditions: 6 h
# Experimental: Human hepatocytes HepG2 and LO2 cells are obtained from the cell bank of Xiangya Hospital. The medium is DMEM medium (HyClone, SH30022.01) and RPMI medium (HyClone, SH30809.01) containing 10% fetal bovine serum (Gibco, 10091148) and 100 U/mL ampicillin+streptomycin double-antibody (Gibco, 10378016). The cell incubator conditions are 37° C., constant temperature and humidity, and constant carbon dioxide concentration of 5%. DMSO, 1 μM of Erastin, 80 mM of ethanol, 10 μM of DOX, 10 μM DOX+10 μM dimethyl fumarate, 10 μM DOX+10 μM monomethyl fumarate, 10 μM DOX+1 μM Ferrostatin-1, 80 mM ethanol+10 μM dimethyl fumarate, 80 mM ethanol+10 μM monomethyl fumarate, and 80 mM ethanol+1 μM Ferrostatin-1 are respectively added to monolayer adherent hepatocytes HepG2 and LO2 cells. After being incubated for 6 h, the cells are gently rinsed with PBS buffer pre-cooled at 4° C. for 3 times, and every 1 million cells are homogenized with 0.1 mL of IP lysate (Beyotime, […]), and supernatant is collected after centrifugation at 4° C. The cell membrane lipid peroxidation level is measured by MDA detection kit (Beyotime, […]), specific operations are performed according to the instructions, and the test is repeated for three times.
# HepG2 cells = test: GSH and GSSG level determination test; conditions: 10 μM and 30 μM, incubated 20 h; concentration-dependent
# Experimental: Human hepatocytes HepG2 and LO2 cells are obtained from the cell bank of Xiangya Hospital. The medium is DMEM medium (HyClone, SH30022.01) and RPMI medium (HyClone, SH30809.01) containing 10% fetal bovine serum (Gibco, 10091148) and 100 U/mL ampicillin+streptomycin double-antibody (Gibco, 10378016). The cell incubator conditions are 37° C., constant temperature and humidity, and constant carbon dioxide concentration of 5%. Monolayer adherent HepG2 cells are digested with a trypsin into single-cell suspension, and the cells are plated on a 96-well plate at 4000 cells/well. After the cells are adhered for 4-6 h, DMSO, 10 μM of dimethyl fumarate, 30 μM of dimethyl fumarate, 10 μM of monomethyl fumarate and 30 μM of monomethyl fumarate are respectively added to the cell culture plate, and incubated for 20 h, GSH/GSSG-Glo™ Assay Kit (Promega, V6611) is used to detect the total GSH and GSSH of the cells. Specific operations are performed according to the instructions, and the experiment is repeated for three times.
# [2] = tested on: GPX4 protein level of HepG2 and LO2 cells; test: Western Blot test 2: GPX4 protein level, DOX stimulation; conditions: 10 μM DOX + 10 μM test substance, 6 h
smiles,measurement,setting,value
COC(=O)/C=C/C(=O)O [monomethyl fumarate],GPX4 protein level of ethanol-stimulated cells,[1],significantly up-regulate
same,cell membrane lipid peroxidation level caused by DOX,HepG2 and LO2 cells; 10 μM DOX + 10 μM test substance,significantly inhibit
same,cell membrane lipid peroxidation level caused by ethanol,HepG2 and LO2 cells; 80 mM ethanol + 10 μM test substance,significantly inhibit
same,GSH level of the HepG2 cells,HepG2 cells,significantly up-regulate
same,GSSH level of the HepG2 cells,HepG2 cells,significantly up-regulate
same,GPX4 protein level of DOX-stimulated cells,[2],significantly up-regulate
